The values below come from PubChem BioAssay AID248 (DTP/NCI, 2004).

This test has as its system L1210 leukemia ip in BDF1 mice, survival T/C. Put plainly: NCI In Vivo Anticancer Drug Screen. Data for tumor model L1210 Leukemia (intraperitoneal) in B6D2F1 (BDF1) mice. The following applies: T/C endpoint: mean survival time, higher T/C = longer survival.
The mark [1] stands for this setting: dose: 200.0 mg/kg/injection, schedule: Q01DX009 (ip), vehicle: saline with Tween-80.
[2] abbreviates: dose: 400.0 mg/kg/injection, schedule: Q01DX009 (ip), vehicle: saline with Tween-80.
[3] abbreviates: dose: 100.0 mg/kg/injection, schedule: Q01DX001 (ip), vehicle: saline.
[4] abbreviates: dose: 400.0 mg/kg/injection, schedule: Q01DX001 (ip), vehicle: Klucel (hydroxypropylcellulose) (HPC).
Where [5] appears, read: dose: 400.0 mg/kg/injection, schedule: Q04DX002 (ip), vehicle: Klucel (hydroxypropylcellulose) (HPC).
The mark [6] stands for this setting: dose: 200.0 mg/kg/injection, schedule: Q01DX001 (ip), vehicle: saline.
The mark [7] stands for this setting: dose: 400.0 mg/kg/injection, schedule: Q01DX001 (ip), vehicle: saline.
[8] abbreviates: dose: 200.0 mg/kg/injection, schedule: Q01DX001 (ip), vehicle: Klucel (hydroxypropylcellulose) (HPC).
The mark [9] stands for this setting: dose: 400.0 mg/kg/injection, schedule: Q04DX003 (ip), vehicle: water.
The mark [10] stands for this setting: dose: 200.0 mg/kg/injection, schedule: Q04DX003 (ip), vehicle: saline.
The mark [11] stands for this setting: dose: 400.0 mg/kg/injection, schedule: Q04DX003 (ip), vehicle: saline.
The mark [12] stands for this setting: dose: 400.0 mg/kg/injection, schedule: Q04DX003 (ip), vehicle: Klucel (hydroxypropylcellulose) (HPC).

The list is a part of this screen's results and no random one: it is rich in T/C values a quarter to a half above the control, in often repeated tests (any T/C) and in doses without a T/C. Further doses and runs are listed elsewhere. T/C gives the treated animals as a percentage of the vehicle group. Some doses have a count of surviving animals in place of a T/C: the source holds a T/C of zero for them, seemingly a mark for toxic or unscored doses. Some doses without a T/C left all or most animals alive at the check, yet need not have been tolerated: the source hardly ever lists a survival T/C far under the control, and the zero likely stands for such cases as well. Survivors were counted at the toxicity check, usually on the fifth day, unless a day is given; later deaths do not show. Schedule codes are those of the source, taken here to give the interval after Q, in days (D) or hours (H), and the number of doses after X. Some schedule codes hold Z or #, which are not explained here. Some molecules as drawn cover several salts, stereoisomers or complexes of the source; a dose is that of the sample tested. Additions like (4×) say how often a value occurs here. Where survival is the endpoint, the PubChem record calls one and a half times the control and up active, and a quarter to a half above the control has no call in these data; cut-offs in other NCI protocols can differ. Some T/C values are followed by the survivors on the day toxicity was checked, most often the fifth; without a count, all were alive then.

Regarding `COC1=CC=C2C3Cc4ccc(OC)c(O)c4C2(C1)CN3C` (stereo not given), the survivor count (dose: 150.0 mg/kg/injection, schedule: Q01DX009 (ip), vehicle: Klucel (hydroxypropylcellulose) (HPC)) was 1 of 6; the survivor count (dose: 200.0 mg/kg/injection, schedule: Q04DX003 (ip), vehicle: other) is 1 of 6; the survivor count (dose: 225.0 mg/kg/injection, schedule: Q01DX009 (ip), vehicle: Klucel (hydroxypropylcellulose) (HPC)) is recorded as 3 of 6; the survivor count (dose: 335.0 mg/kg/injection, schedule: Q01DX009 (ip), vehicle: Klucel (hydroxypropylcellulose) (HPC)) is given as 0 of 6; the survivor count (dose: 400.0 mg/kg/injection, schedule: Q04DX003 (ip), vehicle: other) is reported as 0 of 6.

With `C=CCc1cc(Cl)ccc1OCC(=O)O`, under “dose: 400.0 mg/kg/injection, schedule: Q01DX009 (ip), vehicle: gum acacia”, the survivor count was 0 of 6.

In the case of `O=C(O)C1Cc2ccccc2CN1` (stereo not given), the survivor count by setting is: under setting [1], 0 of 6; under setting [2], 0 of 6.

Turning to `c1cnc(OCCN2CC2)cn1`, the survivor count by setting is: (dose: 100.0 mg/kg/injection, schedule: Q01DX001 (ip), vehicle: carboxymethylcellulose (CMC)) 2 of 6; under setting [3], 2 of 6; (dose: 200.0 mg/kg/injection, schedule: Q01DX001 (ip), vehicle: carboxymethylcellulose (CMC)) 0 of 6; (dose: 400.0 mg/kg/injection, schedule: Q01DX001 (ip), vehicle: carboxymethylcellulose (CMC)) 0 of 6.

`CNS(=O)(=O)c1c(C)cccc1CC(=O)c1ccccc1`: the survivor count (dose: 200.0 mg/kg/injection, schedule: Q01DX001 (ip), vehicle: steroid suspending solution) is recorded as 6 of 6.

`O=S(=O)(F)c1cccc2nsnc12`: the survivor count (dose: 200.0 mg/kg/injection, schedule: Q04DX003 (ip), vehicle: carboxymethylcellulose (CMC)) was 6 of 6.

For the molecule `CC(=O)N(C)c1cc2c3c(c1)CCCN3CCC2`, for the setting “dose: 200.0 mg/kg/injection, schedule: Q01DX009 (ip), vehicle: Klucel (hydroxypropylcellulose) (HPC)”, the survivor count is 3 of 6.

As to `CCCCCCCCC[n+]1cccc(C(=O)c2ccccc2)c1`, the survivor count runs as follows: (dose: 75.0 mg/kg/injection, schedule: Q01DX001 (ip), vehicle: saline) 2 of 6; (dose: 150.0 mg/kg/injection, schedule: Q01DX001 (ip), vehicle: saline) 0 of 6; (dose: 300.0 mg/kg/injection, schedule: Q01DX001 (ip), vehicle: saline) 0 of 6.

Turning to `Cc1nc(SCc2ccccc2)nc(N)c1CN`, the survivor count under setting [4] is 0 of 6.

As for `CCOc1ccc2nc(C)cc(C)c2c1`, the survivor count under setting [5] is 3 of 3.

On to `Cc1nnc(NS(=O)(=O)c2ccc(N=Nc3c(N)nc(N)[nH]c3=O)cc2)s1`, for which the survivor count reads like this: (dose: 80.0 mg/kg/injection, schedule: Q01DX001 (ip), vehicle: saline) 3 of 6; under setting [3], 0 of 6; under setting [6], 1 of 6; under setting [7], 2 of 6.

For the molecule `CC(=O)Nc1cc(Cl)c2[nH]cnc2n1`, the T/C under setting [8] was 125 % of control [4 of 6 alive]. In addition, the survivor count is on record as 0 of 6 under setting [4] and 2 of 6 under setting [9].

Turning to `CCCCOC(=O)c1ccc(OC(=O)Nc2ccc([N+](=O)[O-])cc2OC)cc1`, the survivor count (dose: 400.0 mg/kg/injection, schedule: Q01DX009 (ip), vehicle: other) was 4 of 6.

`CC1=C(Br)C(=O)C(Br)=C(Br)C1=O`: the survivor count by setting is: (dose: 200.0 mg/kg/injection, schedule: Q04DX003 (ip), vehicle: acetone) 4 of 6; (dose: 400.0 mg/kg/injection, schedule: Q04DX003 (ip), vehicle: acetone) 0 of 6.

Regarding `CCN(CC)C(=S)N1C(=O)C2C3CCC(O3)C2C1=O` (stereo not given), the survivor count reads like this: (dose: 100.0 mg/kg/injection, schedule: Q04DX002 (ip), vehicle: saline with Tween-80) 0 of 3; (dose: 200.0 mg/kg/injection, schedule: Q04DX002 (ip), vehicle: saline with Tween-80) 0 of 3; (dose: 400.0 mg/kg/injection, schedule: Q04DX002 (ip), vehicle: saline with Tween-80) 0 of 3.

Regarding `O=S1(=O)C2C=CCC1C(Cl)CC2` (stereo not given), the survivor count runs as follows: (dose: 50.0 mg/kg/injection, schedule: Q01DX009 (ip), vehicle: Klucel (hydroxypropylcellulose) (HPC)) 1 of 6; (dose: 100.0 mg/kg/injection, schedule: Q01DX001 (ip), vehicle: Klucel (hydroxypropylcellulose) (HPC)) 0 of 6; under setting [8], 1 of 6; under setting [4], 0 of 6.

Regarding `Cc1nc(N)c2nonc2n1`, the survivor count is 6 of 6 under setting [1] and 3 of 6 under setting [2].

As to `CC1CN(CC2CCCCCCCCCCC2=O)CC(C)O1` (stereo not given), the survivor count under setting [5] was 0 of 3.

On to `O=C(C[n+]1cccc(C(=O)Nc2ccccc2)c1)Nc1ccccc1`, for which the survivor count under setting [10] was 0 of 6 and the survivor count under setting [11] is on record as 0 of 6.

Take `NC(N)=N/N=C/c1cccc(Cl)c1`: the survivor count is 3 of 6 (dose: 60.0 mg/kg/injection, schedule: Q01DX Z (ip), vehicle: saline) and 0 of 6 (dose: 120.0 mg/kg/injection, schedule: Q01DX Z (ip), vehicle: saline).

For the molecule `O=C(OC1COC(O)C(OC(=O)c2ccccc2)C1OC(=O)c1ccccc1)c1ccccc1` (stereo not given), for the setting “dose: 400.0 mg/kg/injection, schedule: Q01DX001 (ip), vehicle: saline with Tween-80”, the survivor count is on record as 3 of 3.

As for `N#Cc1cc(C#N)c(Cl)nc1N`, where the note is “dose: 400.0 mg/kg/injection, schedule: Q01DX009 (ip), vehicle: Klucel (hydroxypropylcellulose) (HPC)”, the survivor count is 4 of 6.

On to `Cc1cc[n+](CCc2ccccc2)cc1`, for which the survivor count reads like this: under setting [10], 2 of 6 (2×); (dose: 300.0 mg/kg/injection, schedule: Q01DX001 (ip), vehicle: carboxymethylcellulose (CMC)) 1 of 6; under setting [11], 0 of 6 (2×).

Regarding `CCCCCCCC(=O)Nc1ccc(C)cc1`, the T/C under setting [12] is 127 % of control [5 of 6 alive].

In the case of `CC(=O)OC(C)(C)/C=C/C(=O)[C@](C)(O)[C@H]1[C@H](O)C[C@@]2(C)[C@@H]3CC=C4[C@@H](CC[C@H](O)C4(C)C)[C@]3(CO)C(=O)C[C@]12C`, the survivor count (dose: 2.0 mg/kg/injection, schedule: Q01DX Z (ip), vehicle: saline) is listed as 2 of 6.

Turning to `Cc1ccccc1NC=O`, the survivor count under setting [2] is 6 of 6.

As for `O=[N+]([O-])c1cc(S(=O)(=O)F)cc(Cl)c1S`, the survivor count under setting [12] is listed as 0 of 6.

Turning to `CCCCNC(C)(C)CCl`, the survivor count is listed as 3 of 6 (dose: 100.0 mg/kg/injection, schedule: Q01DX009 (ip), vehicle: saline); 0 of 6 (dose: 100.0 mg/kg/injection, schedule: Q01DX009 (ip), vehicle: water); 0 of 6 under setting [6]; 0 of 6 (dose: 200.0 mg/kg/injection, schedule: Q01DX009 (ip), vehicle: water); 0 of 6 (dose: 200.0 mg/kg/injection, schedule: Q04DX003 (ip), vehicle: water); 0 of 6 under setting [7]. The survivor count under setting [9] was 0 of 6.
